Source: PubChem BioAssay AID1572 (National Center for Advancing Translational Sciences (NCATS), 2009)
The inconclusive results got no clear call from the source; some entries with a clear call stand among them for comparison. Potencies of inconclusive entries are doubtful fits and often do not repeat. The source made the active and inactive calls. Calls come from the whole dose curve; as a rule, active = well fitted curve in either direction with a large enough effect; inconclusive = small, poorly fitted or top-dose-only effect; inactive = flat fitted curve, though single readings scatter.

Experiment: Total Fluorescence Confirmation Counterscreen for Inhibitors of the Interaction of Thyroid Hormone Receptor and Steroid Receptor Coregulator 2
Details: Texas Red total fluorescence, TRbeta/SRC2 FP artifact counterscreen; series mostly up to 92.2 µM; total fluorescence change, both ways: at the top concentration
From the text: NIH Molecular Libraries Probe Production Network [MLPCN] NIH Chemical Genomics Center [NCGC] MLPCN Grant: DK058080 Assay Provider: R. Kip Guy, St. Jude Children's Research Hospital NCGC Assay Overview: Thyroid receptor (TR) regulates many homeostatic processes including basal metabolism, cardiovascular function, body weight, and lipid trafficking. TR modulators are potential therapeutics for obesity and hyperlipidemias but current thyroid analogs have undesirable side effects, particularly cardiac stimulation. To identify inhibitors that specifically prevent the interaction of TR with the steroid receptor coregulator 2 (SRC2), a fluorescence polarization assay was screened. This assay detects interaction of the ligand-binding domain of human TRbeta with a Texas Red labeled SRC2 peptide, corresponding to a 20 amino acid region of the nuclear receptor interaction domain (Arnold et al., 2006). Total fluorescence (555 nm excitation and 632 nm emission) was measured to identify potential fluorescent and light absorbing compounds. Such compounds may be artifacts that interfere with the fluorescence polarization assay. This assay is a confirmation assay for AID 1479. Arnold, L. A.; Estebanez-Perpina, E.; Togashi, M.; Shelat, A.; Ocasio, C. A.; McReynolds, A. C.; Nguyen, P.; Baxter, J. D.; Fletterick, R. J.; Webb, P.; Guy, R. K. A high-throughput screening method to identify small molecule inhibitors of thyroid hormone receptor coactivator binding. Sci STKE 2006, p 13.
NCGC Assay Protocol Summary: For screening, 5 uL/well 0.6 uM TRbeta and 20 nM SRC2 Texas Red in protein buffer (20mM Tris hydrochloride, 100mM NaCl, 10% glycerol, 1mM EDTA, 0.01% NP-40, 1mM DTT, 1uM T3 and 5% DMSO) was dispensed into black solid 1536-well plates (Grenier) using a solenoid-based dispenser. Following transfer of 23 nL compound or DMSO vehicle by a pin tool, the plates were centrifuged 15 s at 1000 RPM and incubated 5 hr at ambient temperature. The plates were read by an Envision (Perkin Elmer) to detect fluorescence polarization of SRC2 Texas Red (555 nm excitation and 632 nm emission). Data were normalized to unbound (all components except TRbeta) and bound SRC2 Texas Red controls. Total fluorescence (TF) was calculated as follows: TF = S + 2P where S and P are fluorescence readings in the parallel and perpendicular channels, respectively. In this assay, we provide % activity data for each concentration as well as potencies for the active compounds.

Row | SMILES | total fluorescence change, both ways | Potency
1 | C=CCNC(=O)/C(C#N)=C\c1cc(Cl)c(OCC)c(OC)c1 | inactive: -0.935% | 
2 | CCOC(=O)c1cnc2nc(NCc3ccc(OC)c(OC)c3)[nH]n2c1=O | inactive: 6.28% | 
3 | Cc1cc(N=Cc2c(O)ccc3ccccc23)no1 |  | inconclusive: 25.1 µM [quencher, full curve]
4 | CCC(C)NC(=O)COC(=O)c1csc2c1CCCC2 (configuration not stated) | inactive: 8.07% | 
5 | O=C1CNC(=S)N1c1nc(-c2ccccc2)cs1 |  | active: 11.2 µM [quencher]
6 | COc1ccc2c(c1)-c1nc(/N=C/c3c(O)ccc4ccccc34)sc1CC2 |  | inconclusive: 22.4 µM [quencher, full curve]
7 | COc1ccc(CN2C(=O)Cc3c2nc(N)c2c(N)nc(N4CCCCC4)c(C#N)c32)cc1 | inactive: 1.08% | 
8 | CN1CCc2ccc3c4c2[C@]1(C)Cc1cccc(c1-4)OCO3 |  | active: 100 µM [fluorescent]
9 | COc1ccc2nc3cccc(OC)c3nc2c1 |  | inconclusive: 44.7 µM [quencher, partial curve, poor fit]
10 | O=C(NNc1cc(N2CCOCC2)nc(N2CCOCC2)n1)c1ccc([N+](=O)[O-])cc1 |  | inconclusive: 39.8 µM [fluorescent, partial curve]
11 | COc1ccc(C(=O)Oc2ccc(C(c3c(C)[nH][nH]c3=O)c3c(C)[nH][nH]c3=O)cc2OC)cc1 | inactive: 6.44% [at 184 µM] | 
12 | N#Cc1c(NC(=O)c2ccccc2Cl)n(Cc2ccccc2)c2nc3ccccc3nc12 |  | inconclusive: 44.7 µM [quencher, partial curve]
13 | Oc1ccc2ccccc2c1C=NC12CN3CCN(CN(C3)C1)C2 |  | inconclusive: 31.6 µM [quencher, partial curve]
14 | Cn1cc(/C=C2\SC(=S)N(NC(=O)c3ccccc3)C2=O)c2ccccc21 |  | active: 70.8 µM [fluorescent]
15 | Cc1cccc(Cn2c(C(=O)OC(C)C)cc3c2ccn3C)c1 | inactive: 2.46% | 
16 | Cn1c(=O)[nH]c2nnc(-c3ccc(Cl)c(Cl)c3)nc2c1=O |  | inconclusive: 35.5 µM [quencher, partial curve]
17 | CC1(C)C(N(O)C(=O)Nc2ccc(Cl)cc2)N(c2ccc(Cl)cc2)C(=O)N1CC(=O)NN (configuration not stated) |  | inconclusive: 39.8 µM [quencher, partial curve]
18 | Oc1ccc2ccccc2c1/C=N/c1nccs1 |  | inconclusive: 31.6 µM [quencher, full curve]
19 | Oc1ccc2ccccc2c1/C=N/c1nc2c(s1)CCCC2 |  | inconclusive: 28.2 µM [quencher, full curve]
20 | COc1ccc(-c2nc(CS(=O)CC(=O)NCc3ccccn3)c(C)o2)cc1 (configuration not stated) |  | active: 35.5 µM [fluorescent]
21 | CC(=O)c1cccc(NC(=O)COC(=O)c2ccc(S(C)(=O)=O)c([N+](=O)[O-])c2)c1 |  | inconclusive: 28.2 µM [quencher, partial curve]
22 | CC(C)(C)N1C(=O)Cc2c1nc(N)c1c(N)nc(N3CCCCC3CO)c(C#N)c21 (configuration not stated) |  | inconclusive: 39.8 µM [quencher, partial curve]
23 | Nc1cc(-c2ccccc2)c[nH]c1=O | inactive: -2.47% | 
24 | CCOc1ccc(NC(=O)C(c2ccccn2)N(C(=O)CCl)c2ccc(F)cc2)cc1 (configuration not stated) | inactive: 1.73% | 
25 | C=CCSc1nnc2n(-c3ccccc3OC)c(=O)c3c4c(sc3n12)CCC4 | inactive: 3.26% | 
26 | CS(=O)(=O)c1ccc(C(=O)OCC(=O)NC(=O)C2CCCCC2)cc1[N+](=O)[O-] | inactive: -3.18% | 
27 | O=C(NNc1cc(N2CCOCC2)nc(N2CCOCC2)n1)c1ccc(Cl)c(Cl)c1 |  | active: 39.8 µM [quencher]

Part of the list above, with each value named:
O=C(NNc1cc(N2CCOCC2)nc(N2CCOCC2)n1)c1ccc([N+](=O)[O-])cc1
  Potency: inconclusive: 39.8 µM [fluorescent, partial curve]
COc1ccc(C(=O)Oc2ccc(C(c3c(C)[nH][nH]c3=O)c3c(C)[nH][nH]c3=O)cc2OC)cc1
  total fluorescence change, both ways: inactive: 6.44% [at 184 µM]
